Results: patent EP2544694B1
Results are given in words; binding and its absence hold for the method and conditions named. Some entries that bind do so weakly or less than the wild type.

By UniProt entry, the sequences of proteins in these tests, tags left out. Residues count along the entry.
UniProt P27918, residues 28-469: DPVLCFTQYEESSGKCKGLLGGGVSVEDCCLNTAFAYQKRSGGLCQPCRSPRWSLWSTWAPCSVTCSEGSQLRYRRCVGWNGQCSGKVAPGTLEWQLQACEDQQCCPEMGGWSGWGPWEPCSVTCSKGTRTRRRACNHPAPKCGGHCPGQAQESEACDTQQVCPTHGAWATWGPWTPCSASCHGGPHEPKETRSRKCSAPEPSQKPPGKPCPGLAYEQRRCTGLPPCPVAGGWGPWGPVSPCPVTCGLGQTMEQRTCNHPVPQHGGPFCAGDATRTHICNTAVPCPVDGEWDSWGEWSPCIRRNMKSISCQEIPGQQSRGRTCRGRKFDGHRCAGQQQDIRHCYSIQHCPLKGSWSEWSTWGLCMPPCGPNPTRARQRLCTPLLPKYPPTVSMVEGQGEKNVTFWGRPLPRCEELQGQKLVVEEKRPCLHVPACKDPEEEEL

Key:
human properdin (human) [1] = target: human properdin (human) (UniProt P27918); experiment: ELISA on properdin-coated plate
human properdin (human) [2] = target: human properdin (human) (UniProt P27918); experiment: ELISA on properdin-coated plate (legend of FIG. 5)
human properdin (human) [3] = target: human properdin (human) (UniProt P27918); experiment: ELISA on properdin-coated plate, peroxidase-conjugated goat anti-mouse detection

Binder	binding (human properdin (human) [1])	binding (human properdin (human) [2])	binding (human properdin (human) [3])
anti-properdin monoclonal antibody IgG (14G11) (antibody, V domains shown) VH: QVTLKESGPGILQPSQTLSLTCSFSGFSLSTSGMGVGWIRQPSGKGLEWLAHIWWDDVKSYNPALKSRLTISKDTSSSQVFLRIASVDTADTATYYCARIGDGYYSFDYWGQGTTLTVSS VL: DIVMTQSHKFMSTSVGDRVSISCKASQDVSDAVAWFQQKPGQSPKLLIYSPSYRYTGVPDRFTGSGSGTDFTFTISSVQAEDLAVYYCQQHYSTPWTFGGGTKLEIKR	binds	binds	binds
anti-properdin Fab (of 14G11) (Fab, V domains shown) VH: QVTLKESGPGILQPSQTLSLTCSFSGFSLSTSGMGVGWIRQPSGKGLEWLAHIWWDDVKSYNPALKSRLTISKDTSSSQVFLRIASVDTADTATYYCARIGDGYYSFDYWGQGTTLTVSS VL: DIVMTQSHKFMSTSVGDRVSISCKASQDVSDAVAWFQQKPGQSPKLLIYSPSYRYTGVPDRFTGSGSGTDFTFTISSVQAEDLAVYYCQQHYSTPWTFGGGTKLEIKR	binds	–	–
